Data from patent US20110111411.
For some assays here: A negative result means that nothing was seen under these conditions. For some assays here: Where a protein sequence is shown, tags need not be part of it. For some assays here: For at least one entry, the source does not settle the construct or the ends of the probe.

By UniProt entry, the sequences of proteins in these tests, tags left out. Residues count along the entry.
UniProt Q04206, whole entry: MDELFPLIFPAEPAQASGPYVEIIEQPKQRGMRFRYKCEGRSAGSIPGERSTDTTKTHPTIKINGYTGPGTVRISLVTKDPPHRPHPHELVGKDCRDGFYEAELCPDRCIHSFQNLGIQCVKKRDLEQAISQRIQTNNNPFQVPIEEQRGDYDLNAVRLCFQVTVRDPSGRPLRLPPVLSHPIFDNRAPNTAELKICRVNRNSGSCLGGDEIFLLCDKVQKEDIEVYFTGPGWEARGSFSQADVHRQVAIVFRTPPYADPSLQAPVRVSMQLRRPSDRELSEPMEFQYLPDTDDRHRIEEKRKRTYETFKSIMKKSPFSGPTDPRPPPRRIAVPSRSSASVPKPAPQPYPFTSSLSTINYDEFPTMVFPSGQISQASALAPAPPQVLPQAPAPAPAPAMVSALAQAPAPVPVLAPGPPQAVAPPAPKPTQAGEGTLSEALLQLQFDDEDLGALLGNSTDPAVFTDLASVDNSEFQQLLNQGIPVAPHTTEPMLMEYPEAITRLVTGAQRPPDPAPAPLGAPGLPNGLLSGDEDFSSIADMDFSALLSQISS
UniProt P35222, 2-781: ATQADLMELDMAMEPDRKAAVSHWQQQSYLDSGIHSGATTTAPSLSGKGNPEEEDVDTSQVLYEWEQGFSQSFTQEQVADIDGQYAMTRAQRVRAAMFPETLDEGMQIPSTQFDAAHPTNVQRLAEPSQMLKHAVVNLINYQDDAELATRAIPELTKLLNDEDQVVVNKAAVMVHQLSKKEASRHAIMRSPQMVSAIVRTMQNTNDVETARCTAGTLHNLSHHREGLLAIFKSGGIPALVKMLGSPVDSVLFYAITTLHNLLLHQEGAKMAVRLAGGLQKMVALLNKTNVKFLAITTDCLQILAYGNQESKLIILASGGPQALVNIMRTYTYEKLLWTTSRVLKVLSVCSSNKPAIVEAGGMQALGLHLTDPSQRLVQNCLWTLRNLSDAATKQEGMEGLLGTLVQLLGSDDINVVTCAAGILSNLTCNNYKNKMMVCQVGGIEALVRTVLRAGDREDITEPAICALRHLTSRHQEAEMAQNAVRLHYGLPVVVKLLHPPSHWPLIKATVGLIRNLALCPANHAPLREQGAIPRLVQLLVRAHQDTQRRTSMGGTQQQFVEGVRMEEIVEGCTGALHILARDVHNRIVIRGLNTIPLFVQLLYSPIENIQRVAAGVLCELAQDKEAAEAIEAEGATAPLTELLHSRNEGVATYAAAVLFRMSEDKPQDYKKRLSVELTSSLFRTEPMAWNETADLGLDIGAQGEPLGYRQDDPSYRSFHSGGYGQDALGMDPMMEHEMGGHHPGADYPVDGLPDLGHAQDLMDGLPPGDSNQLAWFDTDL

Legend:
Assay in all cases: activity in cells
[1] = target: NF-kB p65 (endogenous, HEK-293) (UniProt Q04206); details: protein in cells
[2] = target: T1, MS2 coat protein (MS2-DsRed) (Bacteriophage MS2) (UniProt P03612)
T1 sequence (looked up, limits assumed): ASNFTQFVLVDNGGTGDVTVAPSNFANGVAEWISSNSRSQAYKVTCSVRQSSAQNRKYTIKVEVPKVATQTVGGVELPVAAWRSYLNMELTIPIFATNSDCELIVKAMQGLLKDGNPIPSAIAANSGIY

[3] = target: T2, MS2 coat protein (MS2-Venus) (Bacteriophage MS2) (UniProt P03612); details: MS2Δ-3-Puma device; insignificant response; protein in cells; protein details: FLAG-SV40 NLS N-terminal, Venus fusion; variant of MS2 aptamer; counted as no effect
T2 sequence (looked up, limits assumed): T1 sequence (looked up, limits assumed)

[4] = target: T3, NF-kB p50 (endogenous, HEK-293) (UniProt P19838); details: protein in cells
T3 sequence (looked up, limits assumed): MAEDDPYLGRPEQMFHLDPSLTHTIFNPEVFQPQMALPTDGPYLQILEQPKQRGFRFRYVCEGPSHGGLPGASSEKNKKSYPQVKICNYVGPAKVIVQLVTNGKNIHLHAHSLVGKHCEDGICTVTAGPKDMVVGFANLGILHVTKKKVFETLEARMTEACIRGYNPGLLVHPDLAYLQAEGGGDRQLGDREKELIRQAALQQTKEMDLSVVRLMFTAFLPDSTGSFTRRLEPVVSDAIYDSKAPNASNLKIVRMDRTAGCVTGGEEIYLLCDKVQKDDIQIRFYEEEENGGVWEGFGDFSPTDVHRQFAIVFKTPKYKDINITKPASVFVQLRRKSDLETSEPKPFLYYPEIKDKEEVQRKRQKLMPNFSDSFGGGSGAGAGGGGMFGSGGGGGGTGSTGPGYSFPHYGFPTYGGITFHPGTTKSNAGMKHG

NF-kB p50 (p50-DsRed) = details: protein in cells; dose not given here
[5] = target: beta-catenin (endogenous, HEK-293) (UniProt P35222); details: mutant control; response specific to wild-type aptamer; protein in cells; variant of beta-catenin aptamer; dose not given here
[6] = position 3, TNF-α 20 ng/ml, decreased GFP (P<0.05) and exon exclusion

ACUCGCCUUAAGCUGGGUGAUGGGAAUGUGUUUACCCCGCCUAAAUGCGUCCAAAAUAAGCACGACAGGAAGAACAUUCGAAG [NF-kB p65Δ aptamer]
functional effect of the aptamer ([1]; mutant control, response specific to wild-type aptamer, variant of NF-kB p65 aptamer, dose not given here): not active

CGUACACCAUCAGGGUACG [MS2 aptamer]
functional effect ([2]; aptamer in SMN1 mini-gene introns, GFP/splicing change in HEK-293, 6 positions increased and 3 decreased fluorescence (P<0.05), about 2-4 fold, protein in …): active

CGUACCCAUCAGGGUACG [MS2Δ aptamer]
functional effect (% increase in apoptosis) [3]: 10
functional effect ([2]; mutant aptamer control, effects specific to wild-type aptamer, protein in cells, variant of MS2 aptamer): not active

CGUAGCCGGUUGGAAUUUUGUCAAAGUCCUACG [NF-kB p50(1)Δ and p50(2)Δ aptamer]
functional effect of the aptamer ([4]; mutant control, response specific to wild-type aptamer, variant of NF-kB p50(1) aptamer, dose not given here): not active

GAAGCUUACAAGAAGGACAGCACGAAUAAAACCUGCGUAAAUCCGCCCCAUUUGUGUAAGGGUAGUGGGUCGAAUUCCGCUCA [NF-kB p65 aptamer]
functional effect of the aptamer ([1]; position 3, TNF-α 20 ng/ml, increased GFP (P<0.01) and exon exclusion): active

GAUCUUGAAACUGUUUUAAGGUUGGCCGAUC [NF-kB p50(2) aptamer]
functional effect of the aptamer [4, 6]: active
functional effect of the aptamer (NF-kB p50 (p50-DsRed)): active

GCAUCCUGAAACUGUUUUAAGGUUGGCCGAUGC [NF-kB p50(1) aptamer]
functional effect of the aptamer [4, 6]: active
functional effect of the aptamer (NF-kB p50 (p50-DsRed)): active

UCGGUUAGCAAUUUCAUAGGCCACACGGAUAUCGCAGGUAUCUAGCCGGA [beta-cateninΔ aptamer]
functional effect of the aptamer [5]: not active
